# Assay results from PubChem BioAssay AID2685 (National Center for Advancing Translational Sciences (NCATS), 2010).
# This is one part of the list. The main result of the screen is listed elsewhere. These columns were measured beside it and carry no call. Compounds called inactive in the main read-out are mostly missing here. Potencies come from curve fits of mixed quality, noted in brackets.
# Experiment: qHTS Assay for Lipid Storage Modulators in Drosophila S3 Cells;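 for cell number change: cells counted by Cell Tracker Red CMTPX staining in the red channel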
# Conditions: BODIPY lipid droplet fluorescence, 18-24 h; for cell number change: measured here: cell count max response, cells fed with added oleic acid
# Outline: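 Laser-scanning cytometry quantifies lipid droplet accumulation (500–530 nm total intensity; droplet/cell object ratio) in oleic acid-fed (400 uM added) Drosophila S3 cells treated with a concentration series. 20 uM Triacsin C defined 100% inhibition.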
# [1] = measured here: lipid fluorescence (Fed channel) AC50, cells fed with added oleic acid
# [2] = measured here: cell number channel AC50, cells fed with added oleic acid
Compound,cell number change [%],AC50 [1],AC50 [2]
CCC(CC)NC(=O)COC(=O)c1ccc(NS(=O)(=O)c2ccc3c(c2)OCCO3)cc1,1.37,"0.58 µM [falling, single point]",
CCc1ccc(C2C(C#N)=C(N)N(N(C)C)C3=C2C(=O)CCC3)cc1 (stereo not given),,"0.58 µM [rising, single point]","0.164 µM [rising, full curve, poor fit]"
CCN1CCN(CC(O)COCC2COc3ccccc3O2)CC1 (stereo not given),71.2,,
COc1cc(NS(=O)(=O)c2ccc(NS(=O)(=O)c3ccc(NC(C)=O)cc3)cc2)nc(OC)n1,-7.69,,
CC1CCCC(NC(=O)COC(=O)COc2ccc(Cl)cc2)C1C (stereo not given),11.1,,"0.00411 µM [rising, full curve, poor fit]"
Cc1ccc(N2CC(C(=O)OCc3nnc(-c4ccccc4)o3)CC2=O)cc1 (stereo not given),-26.6,"0.13 µM [falling, full curve, poor fit]",
Fc1ccc(-n2cnnn2)c(F)c1,-6.29,,
O=C(C1CCN(c2ncnc3c2nc2n3CCCCC2)CC1)N1CCCCC1,,"29.1 µM [falling, single point]",
COc1cc(C(=O)Nc2nc3ccc(C)cc3s2)ccc1OCc1c(C)noc1C,11.7,"29.1 µM [rising, single point]",
Cc1ccc(NC(=O)CSCC(=O)N(C)CC(=O)Nc2cccc(F)c2)cc1,,,"0.00651 µM [rising, full curve, poor fit]"
CC(C)n1nc(C(=O)NNC(=O)c2ccc(OC(F)F)cc2)c2ccccc2c1=O,20.3,"0.164 µM [rising, full curve, poor fit]",
c1ccc2c(c1)CCN(c1nc3cc4c(cc3s1)OCO4)C2,,"2.06 µM [rising, partial curve]","1.84 µM [rising, partial curve]"
Cc1ccc(N2C(=O)CSC2c2cccnc2)cc1F (stereo not given),43.2,"4.61 µM [rising, partial curve]","3.66 µM [rising, full curve, poor fit]"
O=S(=O)(N/N=C/c1ccccc1F)c1ccccc1,-22,"29.1 µM [falling, single point]",
Cn1c(=O)c2c(SCc3cccc(C(F)(F)F)c3)nc(-c3ccco3)nc2n(C)c1=O,-6.03,"0.146 µM [falling, full curve, poor fit]",
COc1cccc(OCC(=O)NNC(=O)C(=O)Nc2cccc(C)c2)c1,43.9,"9.2 µM [rising, partial curve]","18.4 µM [rising, partial curve]"
CC(C)(C)C1CCC2(CC1)CC(=O)c1ccccc1O2 (stereo not given),-49.8,"5.8 µM [falling, full curve]","16.4 µM [falling, partial curve]"
O=C(NCc1ccccc1)N(Cc1cc2cc3c(cc2[nH]c1=O)OCO3)CC1CCCO1 (stereo not given),-16.1,,
O=C(NC(Nc1nc2ccc([N+](=O)[O-])cc2s1)(C(F)(F)F)C(F)(F)F)c1ccccc1Cl,,"4.11 µM [falling, partial curve]",

Compound,cell number change [%],AC50 [1],AC50 [2]
CCc1ccc2[nH]c(O)c(N=Nc3nc(-c4ccccc4)cs3)c2c1,-24.8,"9.2 µM [falling, partial curve]",
COC(=O)c1ccc(C)c(NC(=O)CN(c2ccc3c(c2)OCO3)S(C)(=O)=O)c1,,"0.411 µM [rising, partial curve, poor fit]","0.731 µM [rising, single point]"
COC1=C/C(=C/c2c(N)n3nc(CC(=O)N4CCCCC4)sc3nc2=O)C=CC1=O,,"11.6 µM [falling, partial curve]",
COc1ccccc1CNC(=O)C1=C(C)C(=O)OC12CCC(C)CC2 (stereo not given),3.07,,
Cc1ccc(-c2nc(Nc3ccc(N4CCOCC4)cc3)c3ccccc3n2)cc1,-53.6,"11.6 µM [falling, partial curve]","9.2 µM [falling, partial curve]"
COc1cccc(N(C(=O)CNC(=O)c2ccco2)C(C(=O)NC2CCCC2)c2ccncc2)c1 (stereo not given),,,"4.11 µM [rising, single point]"
Cc1nc(Nc2nc3ccccc3o2)nc(C)c1C(=O)Nc1ccc(F)cc1,-1.31,"0.103 µM [falling, full curve, poor fit]",
COc1ccc(-c2cc3ccc(OC)cc3cn2)cc1,13.4,"0.651 µM [rising, full curve, poor fit]",
COc1ccc(S(=O)(=O)N2CCCCCC2)cc1C(=O)N1CCN(c2ccccc2C)CC1,-34.5,"1.16 µM [falling, full curve, poor fit]","0.731 µM [falling, partial curve]"
O=c1cc2c(nn1Cc1ccc(Cl)cc1)-c1ccccc1CC2,-126,,
O=C(O)C1C2C=CC3(CN(c4cccc(C(F)(F)F)c4)C(=O)C13)O2 (stereo not given),7.76,"7.31 µM [falling, partial curve]",
C/C(=N/NC(=O)c1ccc(C)s1)c1cccnc1,-12.4,"29.1 µM [rising, single point]",
O=C(CC(NC(=O)c1ccccc1)c1ccccc1)Nc1ccc(F)c(F)c1 (stereo not given),-92,"29.1 µM [falling, single point]","29.1 µM [falling, single point]"
COc1ccc(CCNc2nc3ccccc3n3nnnc23)cc1OC,8.16,,"0.92 µM [rising, full curve, poor fit]"
Cc1cc(C)c2c(-n3cccc3)c(C(=O)NNS(=O)(=O)c3ccc(Br)cc3)sc2n1,24.4,"20.6 µM [rising, single point]","0.00411 µM [rising, full curve, poor fit]"
O=C(O)CN1C(=O)Nc2ccc(Br)cc2C1c1ccccc1 (stereo not given),25.3,"29.1 µM [rising, single point]",
CCOC(=O)CNC(=O)CSc1nc(-c2ccc(C)cc2)ns1,-13.3,"0.146 µM [rising, partial curve, poor fit]",
COc1ccc(OCCCC(=O)ON=C(N)c2ccccc2C)cc1,-19,,"4.11 µM [falling, single point]"

# Three structures already listed, ordered by molecular weight, ascending.
Compound,cell number change [%],AC50 [1],AC50 [2]
COc1ccc(CCNc2nc3ccccc3n3nnnc23)cc1OC,8.16,,"0.92 µM [rising, full curve, poor fit]"
Cc1nc(Nc2nc3ccccc3o2)nc(C)c1C(=O)Nc1ccc(F)cc1,-1.31,"0.103 µM [falling, full curve, poor fit]",
Cc1ccc(-c2nc(Nc3ccc(N4CCOCC4)cc3)c3ccccc3n2)cc1,-53.6,"11.6 µM [falling, partial curve]","9.2 µM [falling, partial curve]"
